In one experiment the target is FLAG-tagged SHPRH (UniProt Q149N8). In words: co-IP; HEK293T cells transfected with FLAG-SHPRH constructs; immunoprecipitated with anti-FLAG sepharose beads, immunoblotting for PARP1. On the technique in general: Immunoblotting shows a protein as a band on a membrane.
The target of experiment [1] is T1, FLAG-tagged SHPRH (1–605) (UniProt Q149N8).
T1 sequence: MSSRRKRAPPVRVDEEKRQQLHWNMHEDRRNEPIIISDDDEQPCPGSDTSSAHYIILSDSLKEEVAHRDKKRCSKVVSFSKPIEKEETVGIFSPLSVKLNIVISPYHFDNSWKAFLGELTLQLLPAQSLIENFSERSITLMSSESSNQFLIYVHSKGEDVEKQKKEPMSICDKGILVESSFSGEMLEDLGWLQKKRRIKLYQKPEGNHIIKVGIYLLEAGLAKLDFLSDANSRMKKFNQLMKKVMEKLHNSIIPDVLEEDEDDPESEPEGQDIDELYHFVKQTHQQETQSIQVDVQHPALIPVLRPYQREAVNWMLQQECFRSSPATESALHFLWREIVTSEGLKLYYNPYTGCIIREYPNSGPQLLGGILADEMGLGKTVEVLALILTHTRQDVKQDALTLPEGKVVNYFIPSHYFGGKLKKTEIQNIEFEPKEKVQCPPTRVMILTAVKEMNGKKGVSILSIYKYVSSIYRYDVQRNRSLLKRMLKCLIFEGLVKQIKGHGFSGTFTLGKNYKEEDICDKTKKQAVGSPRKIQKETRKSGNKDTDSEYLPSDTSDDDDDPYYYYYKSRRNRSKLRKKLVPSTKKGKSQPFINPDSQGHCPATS
The description is as above.

Protein sequences, listed by entry. Tags and fused reporters are not part of them. Lines headed by an entry give the natural chain unless they say otherwise; changes in a name come on top. Chains listed by the source or under a name are the forms on record and can include a tag or linker. Residues count along the entry.
UniProt P09874: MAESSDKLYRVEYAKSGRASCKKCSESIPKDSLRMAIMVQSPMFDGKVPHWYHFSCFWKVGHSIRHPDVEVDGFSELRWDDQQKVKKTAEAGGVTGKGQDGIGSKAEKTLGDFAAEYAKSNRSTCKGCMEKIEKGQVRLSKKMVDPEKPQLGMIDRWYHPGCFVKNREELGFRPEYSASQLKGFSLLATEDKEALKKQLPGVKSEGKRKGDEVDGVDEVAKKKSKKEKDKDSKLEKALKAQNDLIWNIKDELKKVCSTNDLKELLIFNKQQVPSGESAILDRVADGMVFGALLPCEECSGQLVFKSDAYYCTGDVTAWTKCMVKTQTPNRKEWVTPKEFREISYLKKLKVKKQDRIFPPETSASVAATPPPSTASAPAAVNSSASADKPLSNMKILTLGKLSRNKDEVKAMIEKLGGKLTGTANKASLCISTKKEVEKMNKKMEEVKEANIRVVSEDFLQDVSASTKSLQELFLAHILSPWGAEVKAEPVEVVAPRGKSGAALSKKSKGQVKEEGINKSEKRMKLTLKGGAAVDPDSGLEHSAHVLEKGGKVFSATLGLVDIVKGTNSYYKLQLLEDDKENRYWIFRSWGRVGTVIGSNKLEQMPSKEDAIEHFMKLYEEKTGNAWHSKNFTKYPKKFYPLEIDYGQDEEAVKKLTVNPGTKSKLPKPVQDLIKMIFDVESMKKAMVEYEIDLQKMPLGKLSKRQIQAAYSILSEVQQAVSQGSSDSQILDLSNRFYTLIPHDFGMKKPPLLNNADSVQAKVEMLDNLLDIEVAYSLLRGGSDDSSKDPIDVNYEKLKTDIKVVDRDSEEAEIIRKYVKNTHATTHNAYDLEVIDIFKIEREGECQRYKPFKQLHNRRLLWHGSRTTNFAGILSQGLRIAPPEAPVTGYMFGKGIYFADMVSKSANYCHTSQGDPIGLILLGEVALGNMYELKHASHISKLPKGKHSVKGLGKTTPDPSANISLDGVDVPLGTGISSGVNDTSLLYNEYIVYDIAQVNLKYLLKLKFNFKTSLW
GFP-tagged PARP1 (1–374): residues 1-374 of P09874
GFP-tagged PARP1 (356–532): residues 356-532 of P09874
GFP-tagged PARP1 (529–1014): residues 529-1014 of P09874

Experiment [2] deals with T2, FLAG-tagged SHPRH (606–1090) (UniProt Q149N8).
T2 sequence: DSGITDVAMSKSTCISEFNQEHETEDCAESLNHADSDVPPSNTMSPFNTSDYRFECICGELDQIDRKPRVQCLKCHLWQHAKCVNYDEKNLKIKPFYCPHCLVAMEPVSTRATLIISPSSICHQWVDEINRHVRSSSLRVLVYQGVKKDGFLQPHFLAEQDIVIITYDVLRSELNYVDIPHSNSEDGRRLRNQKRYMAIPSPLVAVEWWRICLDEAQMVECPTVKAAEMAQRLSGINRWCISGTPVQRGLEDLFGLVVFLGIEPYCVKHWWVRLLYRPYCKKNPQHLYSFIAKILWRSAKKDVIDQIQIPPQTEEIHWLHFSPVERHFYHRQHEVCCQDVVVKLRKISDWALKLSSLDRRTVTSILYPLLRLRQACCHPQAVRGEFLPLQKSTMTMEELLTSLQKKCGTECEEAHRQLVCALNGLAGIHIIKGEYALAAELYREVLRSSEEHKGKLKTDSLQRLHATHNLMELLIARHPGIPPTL
The description is as above.

For experiment [3], the target named is T3, FLAG-tagged SHPRH (1090–1683) (UniProt Q149N8).
T3 sequence: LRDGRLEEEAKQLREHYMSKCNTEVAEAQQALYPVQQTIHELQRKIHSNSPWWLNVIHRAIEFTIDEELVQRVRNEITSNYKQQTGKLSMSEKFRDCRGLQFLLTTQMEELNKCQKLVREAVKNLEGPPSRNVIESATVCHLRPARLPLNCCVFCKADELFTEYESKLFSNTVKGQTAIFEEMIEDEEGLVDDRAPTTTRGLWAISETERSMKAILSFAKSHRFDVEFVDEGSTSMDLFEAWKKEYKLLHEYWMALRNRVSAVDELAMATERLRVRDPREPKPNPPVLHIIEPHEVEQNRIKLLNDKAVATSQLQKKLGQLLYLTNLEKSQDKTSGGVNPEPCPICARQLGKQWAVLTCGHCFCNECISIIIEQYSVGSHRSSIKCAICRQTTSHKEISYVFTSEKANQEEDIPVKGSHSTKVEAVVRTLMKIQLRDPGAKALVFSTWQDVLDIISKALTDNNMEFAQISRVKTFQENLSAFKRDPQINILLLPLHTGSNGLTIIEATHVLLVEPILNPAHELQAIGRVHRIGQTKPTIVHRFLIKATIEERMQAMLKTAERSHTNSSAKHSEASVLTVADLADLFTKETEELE
The experiment is described as above.

In experiment [4] the target is poly (ADP-ribose) polymerase I (PARP1), endogenous (human (endogenous in HEK293T and T24)) (UniProt P09874). In words: proximity ligation; PLA in T24 cells with antibodies against PARP1 and each translocase; mock, 0.01% MMS for 1 hour, or UV irradiation.
Experiment [5] concerns the target GFP-tagged PARP1 (529–1014) (UniProt P09874). In words: co-IP; HEK293T cells transfected with GFP-PARP1 constructs; immunoprecipitated with a GFP antibody followed by protein G-agarose, immunoblotting for the translocases.
The target in experiment [6] is GFP-tagged PARP1 (356–532) (UniProt P09874). The experiment is described as above.
Another experiment addresses GFP-tagged PARP1 (1–374) (UniProt P09874). The description is as above.
The target of experiment [7] is poly (ADP-ribose) polymerase I (PARP1), endogenous (human (endogenous in HEK293T and T24)) (UniProt P09874). In words: co-IP; endogenous PARP1 immunoprecipitated with an anti-PARP1 antibody, translocases detected by immunoblotting; cells mock-treated or 0.01% MMS for 1 hour; lysates treated with 100 μg/ml DNase I or 50 μg/ml EtBr as indicated.

No constants are given. Whether binding was seen depends on the method and setting. In cells and extracts the contact can be indirect. Some binding calls cover weakened binding; strength is not graded here. For some of these results: Tags and fused reporters may be left off the sequences shown.

Turning to “poly (ADP-ribose) polymerase I (PARP1), endogenous (from UniProt P09874 1-1014)”, the binding result was “binds” with FLAG-tagged SHPRH, “binds” in [1], “binds” in [2] and “binds weakly” in experiment [3].
Take “SNF2 histone linker PHD RING helicase (SHPRH), endogenous (from UniProt Q149N8 1-1683)”: the binding result in experiment [4] is recorded as “binds”; in [5], “binds weakly”; in experiment [6], “binds”; with GFP-tagged PARP1 (1–374), “binds”; in [7], “binds”.

B1: SWI/SNF-related, matrix-associated, actin-dependent regulator of chromatin, subfamily A-like 1 (SMARCAL1), endogenous (protein, UniProt Q9NZC9 1-954)
chain: MSLPLTEEQRKKIEENRQKALARRAEKLLAEQHQRTSSGTSIAGNPFQAKQGPSQNFPRESCKPVSHGVIFKQQNLSSSSNADQRPHDSHSFQAKGIWKKPEEMPTACPGHSPRSQMALTGISPPLAQSPPEVPKQQLLSYELGQGHAQASPEIRFTPFANPTHKPLAKPKSSQETPAHSSGQPPRDAKLEAKTAKASPSGQNISYIHSSSESVTPRTEGRLQQKSGSSVQKGVNSQKGKCVRNGDRFQVLIGYNAELIAVFKTLPSKNYDPDTKTWNFSMNDYSALMKAAQSLPTVNLQPLEWAYGSSESPSTSSEGQAGLPSAPSLSFVKGRCMLISRAYFEADISYSQDLIALFKQMDSRRYDVKTRKWSFLLEEHSKLIAKVRCLPQVQLDPLPTTLTLAFASQLKKTSLSLTPDVPEADLSEVDPKLVSNLMPFQRAGVNFAIAKGGRLLLADDMGLGKTIQAICIAAFYRKEWPLLVVVPSSVRFTWEQAFLRWLPSLSPDCINVVVTGKDRLTAGLINIVSFDLLSKLEKQLKTPFKVVIIDESHFLKNSRTARCRAAMPVLKVAKRVILLSGTPAMSRPAELYTQIIAVKPTFFPQFHAFGLRYCDAKRMPWGWDYSGSSNLGELKLLLEEAVMLRRLKSDVLSQLPAKQRKIVVIAPGRINARTRAALDAAAKEMTTKDKTKQQQKDALILFFNRTAEAKIPSVIEYILDLLESGREKFLVFAHHKVVLDAITQELERKHVQHIRIDGSTSSAEREDLCQQFQLSERHAVAVLSITAANMGLTFSSADLVVFAELFWNPGVLIQAEDRVHRIGQTSSVGIHYLVAKGTADDYLWPLIQEKIKVLAEAGLSETNFSEMTESTDYLYKDPKQQKIYDLFQKSFEKEGSDMELLEAAESFDPGSASGTSGSSSQNMGDTLDESSLTASPQKKRRFEFFDNWDSFTSPL
With B1, the binding entry is recorded as “binds” in [4]; “binds weakly” in experiment [5]; “binds” in experiment [6]; “binds” in the experiment with GFP-tagged PARP1 (1–374); “binds” in experiment [7].

B2: zinc finger RANBP2-type containing 3 (ZRANB3), endogenous (protein, UniProt Q5FWF4 1-1079)
chain: MPRVHNIKKSLTPHISCVTNESDNLLDFLPDRLRAKLLPFQKDGIIFALKRNGRCMVADEMGLGKTIQAIGITYFYKEEWPLLIVVPSSLRYPWTEEIEKWIPELSPEEINVIQNKTDVRRMSTSKVTVLGYGLLTADAKTLIDALNNQNFKVVIVDESHYMKSRNATRSRILLPIVQKARRAILLTGTPALGRPEELFMQIEALFPQKFGRWTDYAKRYCNAHIRYFGKRPQWDCRGASNLNELHQLLSDIMIRRLKTEVLTQLPPKVRQRIPFDLPSAAAKELNTSFEEWEKIMRTPNSGAMETVMGLITRMFKQTAIAKAGAVKDYIKMMLQNDSLKFLVFAHHLSMLQACTEAVIENKTRYIRIDGSVSSSERIHLVNQFQKDPDTRVAILSIQAAGQGLTFTAASHVVFAELYWDPGHIKQAEDRAHRIGQCSSVNIHYLIANGTLDTLMWGMLNRKAQVTGSTLNGRKEKIQAEEGDKEKWDFLQFAEAWTPNDSSEELRKEALFTHFEKEKQHDIRSFFVPQPKKRQLMTSCDESKRFREENTVVSSDPTKTAARDIIDYESDVEPETKRLKLAASEDHCSPSEETPSQSKQIRTPLVESVQEAKAQLTTPAFPVEGWQCSLCTYINNSELPYCEMCETPQGSAVMQIDSLNHIQDKNEKDDSQKDTSKKVQTISDCEKQALAQSEPGQLADSKEETPKIEKEDGLTSQPGNEQWKSSDTLPVYDTLMFCASRNTDRIHIYTKDGKQMSCNFIPLDIKLDLWEDLPASFQLKQYRSLILRFVREWSSLTAMKQRIIRKSGQLFCSPILALEEITKQQTKQNCTKRYITKEDVAVASMDKVKNVGGHVRLITKESRPRDPFTKKLLEDGACVPFLNPYTVQADLTVKPSTSKGYLQAVDNEGNPLCLRCQQPTCQTKQACKANSWDSRFCSLKCQEEFWIRSNNSYLRAKVFETEHGVCQLCNVNAQELFLRLRDAPKSQRKNLLYATWTSKLPLEQLNEMIRNPGEGHFWQVDHIKPVYGGGGQCSLDNLQTLCTVCHKERTARQAKERSQVRRQSLASKHGSDITRFLVKK
For B2, the binding result in [4] is given as “binds”; in experiment [5] it was “binds”; in [6] it was “binds weakly”; with GFP-tagged PARP1 (1–374), “binds weakly”; in [7], “binds”.
